According to PMC4424349:
These are yes or no findings as the source states them, for the method shown. In cells and extracts the contact can be indirect. Some entries that bind do so weakly or less than the wild type. For some assays here: Tags and fused reporters may be left off the sequences shown.

Chains of the proteins cited; added tags and fusions are not shown.
UniProt Q8IDR3: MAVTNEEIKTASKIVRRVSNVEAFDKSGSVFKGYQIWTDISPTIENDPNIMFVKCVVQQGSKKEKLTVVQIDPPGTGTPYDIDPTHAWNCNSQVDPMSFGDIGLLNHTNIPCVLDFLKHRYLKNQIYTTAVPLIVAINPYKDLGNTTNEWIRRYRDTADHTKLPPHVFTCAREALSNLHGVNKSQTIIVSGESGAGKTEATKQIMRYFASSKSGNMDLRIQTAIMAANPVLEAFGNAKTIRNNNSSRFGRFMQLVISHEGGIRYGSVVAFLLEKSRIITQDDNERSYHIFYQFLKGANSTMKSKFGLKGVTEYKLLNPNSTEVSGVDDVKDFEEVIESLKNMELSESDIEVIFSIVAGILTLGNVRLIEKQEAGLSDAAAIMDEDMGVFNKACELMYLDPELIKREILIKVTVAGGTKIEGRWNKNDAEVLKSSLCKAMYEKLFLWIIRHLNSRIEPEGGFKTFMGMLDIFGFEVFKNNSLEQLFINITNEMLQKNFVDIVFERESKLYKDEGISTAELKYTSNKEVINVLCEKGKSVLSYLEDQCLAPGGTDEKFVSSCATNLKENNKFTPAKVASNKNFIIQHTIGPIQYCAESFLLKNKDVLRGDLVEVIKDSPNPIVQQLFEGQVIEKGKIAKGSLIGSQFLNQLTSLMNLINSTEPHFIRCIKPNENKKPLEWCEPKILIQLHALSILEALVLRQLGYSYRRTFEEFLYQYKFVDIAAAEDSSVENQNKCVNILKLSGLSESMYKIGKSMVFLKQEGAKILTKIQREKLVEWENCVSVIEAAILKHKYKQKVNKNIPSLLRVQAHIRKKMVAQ
UniProt Q8I5I8: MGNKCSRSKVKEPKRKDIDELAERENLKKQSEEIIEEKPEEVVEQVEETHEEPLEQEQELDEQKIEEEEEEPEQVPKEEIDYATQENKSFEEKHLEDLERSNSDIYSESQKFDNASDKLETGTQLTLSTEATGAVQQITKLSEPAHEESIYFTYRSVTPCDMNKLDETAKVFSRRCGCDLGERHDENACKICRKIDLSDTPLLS

How the values were obtained:
[1] = molecular target: PfMyoA-GFP (Plasmodium falciparum myosin A with C-terminal GFP) (Plasmodium falciparum 3D7) (UniProt Q8IDR3); assay: co-IP; GFP-Trap agarose beads on schizont lysates (0.5% Nonidet P-40, 150 mM NaCl, 10 mM Tris-HCl pH 7.5, diluted to 0.2% detergent), 2 h at 4 °C, washes with 150 mM and 300 mM NaCl; Western blot with anti-GFP, anti-GAP50, anti-GAP45, anti-MTIP; 3D7 lysate as control
[2] = molecular target: T1, PfMyoB-GFP (Plasmodium falciparum myosin B with C-terminal GFP) (Plasmodium falciparum 3D7) (UniProt Q8I465); assay: as above
T1 sequence: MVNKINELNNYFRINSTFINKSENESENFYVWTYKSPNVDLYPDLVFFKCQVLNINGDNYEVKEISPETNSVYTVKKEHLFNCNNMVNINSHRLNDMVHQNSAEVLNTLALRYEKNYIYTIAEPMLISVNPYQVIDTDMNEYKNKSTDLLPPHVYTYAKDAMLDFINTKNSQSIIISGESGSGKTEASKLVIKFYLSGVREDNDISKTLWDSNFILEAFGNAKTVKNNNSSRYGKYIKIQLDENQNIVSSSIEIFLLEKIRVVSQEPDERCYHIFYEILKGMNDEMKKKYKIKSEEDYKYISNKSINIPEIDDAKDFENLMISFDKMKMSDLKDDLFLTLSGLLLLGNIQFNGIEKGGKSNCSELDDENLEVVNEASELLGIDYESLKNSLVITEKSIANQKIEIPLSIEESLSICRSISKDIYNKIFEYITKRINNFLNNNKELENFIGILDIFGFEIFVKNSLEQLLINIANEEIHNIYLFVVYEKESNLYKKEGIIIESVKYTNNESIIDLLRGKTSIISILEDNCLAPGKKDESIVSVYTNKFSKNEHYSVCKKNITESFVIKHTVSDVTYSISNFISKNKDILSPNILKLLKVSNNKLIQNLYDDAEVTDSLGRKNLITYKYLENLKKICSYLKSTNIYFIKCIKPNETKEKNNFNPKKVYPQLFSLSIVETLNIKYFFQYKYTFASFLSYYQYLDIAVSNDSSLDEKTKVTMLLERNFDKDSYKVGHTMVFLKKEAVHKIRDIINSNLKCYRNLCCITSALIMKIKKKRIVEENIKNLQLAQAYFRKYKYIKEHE

glideosome-associated protein 45 (GAP45) (from UniProt Q8I5I8 1-204)
binding [1]: binds
binding [2]: no binding
